PubChem BioAssay AID1259425, University of Nebraska Medical Center – 2018
The whole screen tested about 14,000 reagents; this is a random part of them. Further read-outs or replicates are left out here. Reagent sequences are not shown. Not stated in the record: the time to read-out.

Assay: 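Seek colon cancer weak points whose silencing resembles KSR1 loss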 (primary screen)
Cells: HCT116 human colon cancer cells
Knock-down reagent: siRNA pool against human genes, 50 nM siRNA
Measured: 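After 50 nM siRNA pool, branched-DNA assay measures six marker transcripts per well, minus blank, normalised to the geometric mean of two housekeeping transcripts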
Reading the numbers: BNIP3L mRNA: higher = more BNIP3L transcript after knockdown; NDRG1 mRNA: higher = more NDRG1 transcript after knockdown

PLA2G12B scored BNIP3L mRNA, set 1 = 0.201; NDRG1 mRNA, set 1 = 0.306. After knock-down of DOCK10, the record shows BNIP3L mRNA, set 1 = 0.156; NDRG1 mRNA, set 1 = 0.212. Knock-down of LINC00597 came out at: BNIP3L mRNA, set 1 = 0.0892; NDRG1 mRNA, set 1 = 0.155. For DEFA5, the values are BNIP3L mRNA, set 1 = 0.124; NDRG1 mRNA, set 1 = 0.193. With knock-down of LAMC1, the record shows BNIP3L mRNA, set 1 = 0.0941; NDRG1 mRNA, set 1 = 0.282. TBC1D30 gave BNIP3L mRNA, set 1 = 0.0311; NDRG1 mRNA, set 1 = 0.138.

After knock-down of OR3A2, the screen gave BNIP3L mRNA, set 1 = 0.194; NDRG1 mRNA, set 1 = 0.321. Knock-down of GRTP1 gave: BNIP3L mRNA, set 1 = 0.132; NDRG1 mRNA, set 1 = 0.366. Against NRN1, the entry reads BNIP3L mRNA, set 1 = 0.132; NDRG1 mRNA, set 1 = 0.315. Depletion of CS resulted in: BNIP3L mRNA, set 1 = 0.117; NDRG1 mRNA, set 1 = 0.0961.

Laid out differently: entries from further up.
{"Target gene": "TBC1D30", "BNIP3L mRNA, set 1": 0.0311, "NDRG1 mRNA, set 1": 0.138}
{"Target gene": "OR3A2", "BNIP3L mRNA, set 1": 0.194, "NDRG1 mRNA, set 1": 0.321}

Continued.
TTLL7 scored BNIP3L mRNA, set 1 = 0.187; NDRG1 mRNA, set 1 = 0.147. After knock-down of SEZ6L2, the screen gave BNIP3L mRNA, set 1 = 0.087; NDRG1 mRNA, set 1 = 0.114. For LRP5, the values are BNIP3L mRNA, set 1 = 0.0492; NDRG1 mRNA, set 1 = 0.202. After knock-down of ZDHHC20, the screen gave BNIP3L mRNA, set 1 = 0.111; NDRG1 mRNA, set 1 = 0.0932. IGF2-AS scored BNIP3L mRNA, set 1 = 0.0677; NDRG1 mRNA, set 1 = 0.232. After knock-down of SCGB1D1, the record shows BNIP3L mRNA, set 1 = 0.102; NDRG1 mRNA, set 1 = 0.0439.

After knock-down of ASAP2, the screen gave BNIP3L mRNA, set 1 = 0.087; NDRG1 mRNA, set 1 = 0.248. With knock-down of PRPSAP1, the record shows BNIP3L mRNA, set 1 = 0.112; NDRG1 mRNA, set 1 = 0.165. After knock-down of SRSF1 the results were BNIP3L mRNA, set 1 = 0.348; NDRG1 mRNA, set 1 = 0.926.
